PubChem BioAssay AID504808 – Drosophila RNAi Screening Center, 2011
The deposit covers about 21,000 reagents; this is a random part of those that have a named target and a result. In the full data, 18 (0.084%) are marked active. 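Raw counts without plate normalisation, one of two replicates; the ratio scores behind the calls were not deposited.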 Entries without a mark were called inactive. Reagents against one gene are numbered here. The record does not give: the amount of reagent, the time to read-out.

Assay: 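Fly genes required to hold E2F transcription in check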 (primary screen)
Cells: Drosophila S2 cells
Knock-down reagent: long dsRNA against Drosophila genes
Detection: 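Firefly luciferase driven by E2F sites, normalised to Renilla luciferase on the same minimal promoter, measured by plate reader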
Direction: E2F firefly: higher = more E2F reporter activity; Renilla normaliser: higher = more normaliser reporter signal
Active means: 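Called active if the normalised E2F reporter went up by over 50%; the cutoff is arbitrary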

Xpd (Xeroderma pigmentosum D)
- E2F firefly, rep 1: 72308
- Renilla normaliser, rep 1: 3691

CG12229
- E2F firefly, rep 1: 1.60e5
- Renilla normaliser, rep 1: 7131

Cyp301a1 (Cytochrome P450 301a1)
- E2F firefly, rep 1: 1.07e5
- Renilla normaliser, rep 1: 4746

Idh3b (Isocitrate dehydrogenase 3b)
- E2F firefly, rep 1: 81168
- Renilla normaliser, rep 1: 3237

CG3021 #1
- E2F firefly, rep 1: 1.23e5
- Renilla normaliser, rep 1: 7397

CG3021 #2
- E2F firefly, rep 1: 1.19e5
- Renilla normaliser, rep 1: 5823

Oseg1 (Outer segment 1)
- E2F firefly, rep 1: 73343
- Renilla normaliser, rep 1: 3550

Muc18B (Mucin 18B)
- E2F firefly, rep 1: 1.35e5
- Renilla normaliser, rep 1: 6475

eIF4E4 (eukaryotic translation initiation factor 4E4)
- E2F firefly, rep 1: 1.07e5
- Renilla normaliser, rep 1: 3692

Srp54k (Signal recognition particle 54k)
- E2F firefly, rep 1: 96457
- Renilla normaliser, rep 1: 4340

CG5065
- E2F firefly, rep 1: 1.40e5
- Renilla normaliser, rep 1: 6240

CG13857
- E2F firefly, rep 1: 1.42e5
- Renilla normaliser, rep 1: 7789

CG42493
- E2F firefly, rep 1: 95384
- Renilla normaliser, rep 1: 3702

CheB93a (Chemosensory protein B 93a)
- E2F firefly, rep 1: 1.47e5
- Renilla normaliser, rep 1: 7302

CG30371
- E2F firefly, rep 1: 1.49e5
- Renilla normaliser, rep 1: 5343

CG17343
- E2F firefly, rep 1: 1.07e5
- Renilla normaliser, rep 1: 4016

Eig71Ea (Ecdysone-induced gene 71Ea)
- E2F firefly, rep 1: 1.70e5
- Renilla normaliser, rep 1: 7003

Npc2h (Niemann-Pick type C-2h)
- E2F firefly, rep 1: 1.25e5
- Renilla normaliser, rep 1: 6468

CG30484
- E2F firefly, rep 1: 1.21e5
- Renilla normaliser, rep 1: 4602

Single entries from the list:
Value of CG13857 under “E2F firefly, rep 1”: 1.42e5
CG30484, Renilla normaliser, rep 1 = 4602
Srp54k (Signal recognition particle 54k), E2F firefly, rep 1: 96457
